Results on 104 sequences are retold here after PubChem BioAssay AID1347423 (Functional Genomics Laboratory (NCATS/FGL), 2020).

The campaign covered roughly 52,000 sequences. About 210 (0.4%) were called active.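 How the source made its calls: active means gene whose silencing raises cell survival under the drug, median off-target-corrected z-score across its silencing RNAs 2 or more; inactive means the rest.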 This is one part of the list.

The test can be described thus: Resistance to Poly (ADP-Ribose) Polymerase inhibitor: Gene Identification via Genome-wide siRNA Screen. To be noted: mouse BRCA2 R2336H ES cells, olaparib, CellTiter-Glo viability; hits give high values. The method in brief: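 Mouse BRCA2 R2336H ES cells were reverse-transfected with siRNA (20 nM final), treated at 48 h with 500 nM olaparib, and read by CellTiter-Glo after 72 h. Scores: MAD-based z per siRNA, median per gene, seed off-target correction.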
A general note: In ATP-based viability assays light output follows the ATP content of the culture.
As for GCCUAGGAUAUGUAUUAACTT against Rhbdl7, the z-score was inactive: 0.0607.

As to GAUGAAGAGGCAGGCCAAGTT against Nkx2-4, the z-score was inactive: 1.41.

Consider GGCACUUGUAUAUGAACUATT against Fbxo36, for which the z-score was inactive: 1.1.

As for GGAGAUGUGAAGAUUCAGUTT against BC025105, the z-score is inactive: 0.558.

Regarding “GCAGUUGAUGAUAAUGUGATT against 2810458H16Rik”, the z-score is inactive: -0.356.

On to GGAGCUUCGAAAAAAGUUGTT against Pex16, for which the z-score is inactive: 0.927.

As for GCGAGUUGAAGACUGAAGGTT against MGC54896, the z-score was inactive: -0.0265.

Consider GGUAUUCACUUAAGCAUUUTT against Slco1b2, for which the z-score is inactive: -0.297.

Take GGAAUGUCCAAAGCAUUUATT against Olfr909: the z-score is inactive: -0.938.

Consider GGUGGAUGUUCGCAUGAUUTT against Ihpk1, for which the z-score is inactive: 0.813.

On to GCUCCAAAUAAGCUUUUUATT against Gabra4, for which the z-score was inactive: 0.137.

On to GGAUGCAUACGACAUAAACTT against Cdh15, for which the z-score is inactive: 0.123.

As to “GGUUAGACUCAGCUUCAUGTT against 4921530G04Rik”, the z-score is inactive: -1.11.

As to GGUUCUUAAUGCAUUCCCGTT against Cyp2d9, the z-score is inactive: 0.0841.

Consider GCGAAUGUUACAUGUCAGUTT against Tdpoz5, for which the z-score was inactive: 0.317.

As to GCAGUGCUCUUAGUAGGACTT against Pfn3, the z-score was inactive: 1.33.

Consider “GCAUCGUUAUCUUUACACUTT against 5730522E02Rik”, for which the z-score was inactive: 0.225.

Regarding “GGGUGAUCAUUCAUCAGUUTT against 0610006F02Rik”, the z-score is inactive: -0.0728.

On to “GGUUUGAUAUCCAGGUGCATT against 3110056O03Rik”, for which the z-score was inactive: 2.99.

In the case of GGUGUUCUUUGAACUCAAUTT against Pcx, the z-score was inactive: 1.86.

As to GGGUGCUGAACAGUCACAATT against Rab12, the z-score was inactive: -2.78.

Regarding GCUUCGCACCUACAUCAUGTT against Pnmt, the z-score is inactive: 0.193.

With GGUCAAGAAUGUAGCUGAUTT against Atp6v0d1, the z-score was inactive: -1.36.

With GGGUCUGUUUCCUUCUGGUTT against Olfr214, the z-score was inactive: -1.84.

On to “GGAUCCAAGGUGAAAAUAUTT against 2900046G09Rik”, for which the z-score was inactive: -1.09.

With GGAGCACUAAAUCAAAAAATT against Ptprz1, the z-score is inactive: 0.552.

As to GGAAAAACUGGUAUCUUCCTT against MGC28180, the z-score is inactive: -0.953.

On to GGCCAGUUCUAUGUCAUGATT against Usf2, for which the z-score was inactive: -0.331.

Turning to “GGAGUUAGUGGUCUCCACUTT against A130023I24Rik”, the z-score is inactive: 1.37.

Take GGUGGAAUUAUGCAUGCUATT against Olfr1094: the z-score is inactive: -1.55.

Consider GGUUUGUGAACAGCUGUACTT against Gfra3, for which the z-score was inactive: -1.94.

As to GGAAAACCUGAUGACAGACTT against Apoc2, the z-score is inactive: 1.34.

Consider GGUACACAUGAGACAAUAUTT against MGC51670, for which the z-score is inactive: -0.968.

Turning to GGCAGUUACCUAAAACUAUTT against Polh, the z-score was inactive: -0.584.

On to GGACUGAUGGAUCCUUCCATT against Krtcap3, for which the z-score was inactive: -2.06.

As for GGUGAAUAAUAAAUGUCUGTT against Igsf9, the z-score was inactive: -0.828.

For GGAUGAUGACAUGAAGUUATT against Nalp5, the z-score was inactive: -0.0827.

Take CCAUAUUUGAAGUUUGAACTT against MGC68340: the z-score is inactive: 0.969.

In the case of CCGCUACGCCAUGUAUAAATT against Upp1, the z-score is inactive: -0.413.

Consider GGAAUAAAGAGGUUAAGGGTT against Olfr38, for which the z-score is inactive: 0.203.

For the sequence CCCGCUUAUGUGUCAGCAUTT against Sdhd, the z-score is inactive: 0.0555.

On to GGACUGGACACUGAAUAUGTT against Tom1l2, for which the z-score is inactive: 0.0995.

Turning to GGCUGGUAAAUCCAACUACTT against Xab2, the z-score was inactive: -0.669.

For GGAGUAUAUCCUAUUGAUGTT against Sdc2, the z-score was inactive: -0.762.

Turning to GGUUAUAAGCUCCAUCUUGTT against Acy1, the z-score is inactive: 2.62.

With CCAAACCAGGUGUUGUCUUTT against Esam1, the z-score is inactive: -0.636.

Regarding GCAGUGCGUUAUCUACUGATT against Rb1, the z-score was inactive: -0.342.

As for GGAGCUGAUUUUCCUAAAGTT against Dcl1, the z-score is inactive: 1.4.

On to CCCAGACCAUACUACGGAUTT against Calb2, for which the z-score is inactive: -0.0646.

On to GCUACAUGGAAAGAUACGGTT against Gpr73l1, for which the z-score is inactive: 0.159.

In the case of GGGUCUACCACAUGUACAUTT against Slc16a6, the z-score was inactive: 0.26.

As for GAUCAGAUGUUUGGGACUUTT against Olfr512, the z-score is inactive: 1.63.

Regarding GGUAUUUGAAGAACGAAGATT against Fbxo16, the z-score was inactive: -0.283.

Regarding GCUACGGAACAAUCACAGCTT against Jarid1d, the z-score is inactive: 0.15.

Take GCUAGUCAAGACCAGUCCGTT against Ttl: the z-score is inactive: -2.08.

Regarding GGGAGUGUGAGGUAUGAACTT against Lrrtm4, the z-score was inactive: 0.402.

As for GGCGAGAGUAUGAACACUUTT against Evpl, the z-score is inactive: -0.6.

For “GGUGGAGUGUUAUUAUAGGTT against 1810030N24Rik”, the z-score was inactive: 0.272.

Regarding CGGCUUCAGGAGAACAUUATT against Mmaa, the z-score is inactive: -0.563.

With “GGAAGUGUGUACCACAUCUTT against D2Ertd391e”, the z-score is inactive: -0.154.

CGAACUGGCCAAGAGUUACTT against Nras: the z-score is inactive: -0.976.

Consider “GCCAAUCCCUAUGAGAUGATT against 1300018I05Rik”, for which the z-score is inactive: 0.537.

For the sequence “CGGAAGAACUACAAGUCGATT against 2610511M17Rik”, the z-score was inactive: 0.123.

For GGAGAUGAUGCCGUCAUUCTT against Chaf1b, the z-score was inactive: -1.61.

For the sequence GGGUAACAUCCUCAUGACATT against Zfp282, the z-score is inactive: 1.79.

As for GGACUUAGAGAGUAUGGACTT against Ctdp1, the z-score is inactive: -0.322.

As for GCACGUAUGGUCAACAUCGTT against Rab2b, the z-score is inactive: 1.07.

As to GCUGAAGCAUACAUUUGUGTT against T2R37, the z-score was inactive: 0.00626.

With GGAAAAGAAGACCUACACCTT against Ppp1r1c, the z-score is inactive: 0.444.

In the case of “GGAACUGAGGUUUUUAAAGTT against D130072O21Rik”, the z-score was inactive: 0.754.

On to CGAGCAAGCUGACAUCUUUTT against Tbc1d4, for which the z-score was inactive: -0.472.

GCUUCAUGGUGGAUUCAGATT against Bai2: the z-score is inactive: 0.0149.

In the case of GGUAGUACCGUGUUAAGUGTT against Uchl5, the z-score is inactive: -0.0494.

On to GGCUUUUCUGAGGAGCACATT against Cbx5, for which the z-score is inactive: 1.92.

GGAUUGGUUACCAAAUGGUTT against Mapk6: the z-score is inactive: 0.258.

Turning to CCUAGACGAUGUCAUGAAGTT against Lrrc4b, the z-score is inactive: 0.916.

GGUCUGACCUGUUUGAUCATT against FHOS2: the z-score is inactive: 0.752.

With “GGUCUUGUUUCUUGAGACCTT against C130050O18Rik”, the z-score was inactive: 0.341.

As to GCACUCUGCCUGAAAUACCTT against Gm14, the z-score was inactive: 0.0126.

For GGAGCAAAAUUCACAGUCUTT against Bcl7a, the z-score was inactive: -0.253.

“GGAUCUAGAUACUUCUAGUTT against 2010004O20Rik”: the z-score was inactive: 0.828.

With GCACGUUCAGUGCACACCUTT against Nubp1, the z-score was inactive: 0.988.

As to GGCCUUAUGUCUUGUAUAUTT against Pip5k1a, the z-score was inactive: -0.439.

With “GGACACUCAAAAACAACUGTT against A030003A19Rik”, the z-score was inactive: -0.807.

For “GGAGGUAUUCACAAAGAGATT against D13Ertd275e”, the z-score was inactive: -0.0343.

Turning to “GGCAGUUCUUAAGUAAUCATT against 4931440F15Rik”, the z-score was inactive: -2.04.

GGUUUAUGCUGUGAAUACATT against Nupl1: the z-score is inactive: -0.569.

For the sequence “CCAAAAUGGAAUGCUCUUCTT against 6330416L07Rik”, the z-score is inactive: -0.746.

As to CCCAGGCACUUGUUUACAGTT against Stim2, the z-score is inactive: 0.00752.

Take GCAUCUAUUGGAUUUACAUTT against Nup153: the z-score is inactive: -2.02.

In the case of CCCACAGAAUCACUCCAAGTT against Utp14a, the z-score was inactive: -2.29.

Regarding CCCAUCAUUAGAAUUACUUTT against Vdac2, the z-score was inactive: -0.255.

Take “CGGGACCUUGUUGAUAACUTT against C130036G08”: the z-score is inactive: -0.0758.

As to GGACUUUUUUCCAGAUUAUTT against Paip1, the z-score was inactive: 0.678.

As to CCUAAGCUUAGAUCAACAUTT against Dhx36, the z-score was inactive: 0.964.

Turning to GGACUUAUGCCGACAGCUUTT against Tnni3, the z-score is inactive: -1.18.

Turning to “GGAACUGGAUCAAGAAUUUTT against 2810432O22Rik”, the z-score was inactive: 1.59.

Take GGGUAGAAGAAAACGAUUUTT against Sca7: the z-score is inactive: -0.841.

On to GCUGCACGCACUGAUCAAGTT against Tjp4, for which the z-score is inactive: -0.696.

Turning to GAAGCUGCACAUCACCAGCTT against BC022623, the z-score is inactive: -0.52.

Regarding GCUUGAUCUUGCAUUUGGUTT against Smyd3, the z-score is inactive: -0.219.

Turning to GGAGGGUCUCCUAAUUUUUTT against Kdelr1, the z-score is inactive: 0.29.

On to “GGACUAAGCAGACCAUACATT against 9630033F20Rik”, for which the z-score was inactive: 0.000304.

Consider GGAUAAUUGCUCAAGCCUGTT against Serac1, for which the z-score is inactive: -1.65.
